Reference: patent US20260364061A1, “COMPOUNDS, COMPOSITIONS, AND METHODS FOR THE TREATMENT OF CANCER” (Ohio State Innovation Foundation, priority 2023, published 2026)
Where two headings read alike, the source gives them in different places.

Key:
[1] = tested on: dedifferentiated liposarcoma (DDLPS) cell line Lipo863; test: Cell cytotoxicity (MTS) assay; conditions: Homo sapiens
IWS1/Spt6 complex = test: Co-immunoprecipitation of the IWS1/Spt6 complex from treated cells; format: cell-based, human; conditions: Co-IP after 48 hours of treatment; vs DMSO negative control
Source text: The Co-IP method allowed us to analyze IWS1/Spt6 protein complex directly and assess the efficiency of the drug candidates to disrupt the complex.

IWS1 = target: T1, IWS1 (Homo sapiens, UniProt Q96ST2); test: Nuclear/cytosolic fraction analysis of IWS1 distribution; format: cell-based; conditions: 5 uM; 48-hour treatment; DMSO negative control ratio 0.75
T1 construct: document uses human liposarcoma lines; nuclear/cytosolic fractionation
Source text: The binding of the small molecule to IWS1 may cause the redistribution of the latter in the cell (cytoplasmic vs nuclear locations) due to conformational changes of the protein or disruption of its functions. To characterize the effect of a drug candidate on the distribution of IWS1 in the cell, we performed fraction analysis by separating cytoplasmic and nuclear proteins.

[2] = tested on: Empty Vector (EV) dedifferentiated liposarcoma cells (cell lines Lipo863 and Lipo815); test: Migration assay, Empty Vector (EV) control cells; format: cell-based, human; conditions: 0.4-4 uM solutions; FIG. 17
Experimental: (§1) FIG. 16A-16B. Evaluation of the effect of IWS1 inhibitors identified from in silico screening on the migration of cancer cells. […] The migration assay was performed using two cell groups: Empty Vector (EV, Negative control) and shIWS1 (IWS1 knockdown).
FIG. 17. Evaluation of the dose-dependent effect of IWS1 inhibitors identified from in silico screening on the migration of cancer cells. Cell migration in vitro represents to some extent the ability of cells to metastasize in vivo.
(§2) To evaluate these compounds, we used dedifferentiated cell lines Lipo863 and Lipo815 as an in-vitro model of dedifferentiated liposarcoma (DDLPS). […] FIG. 15A-15C. Using these candidates as potential pharmacological inhibitors of IWS1, we expected to reproduce/mimic phenotypical changes specific for lentiviral IWS1 knockdown. […] We performed a migration assay to assess the ability of cells to migrate after 24 hours of treatment compared to intact cells (EV) as well as IWS1 knockdown cells (shIWS1). Using drug concentrations that would not affect the viability of the cells, we sought to evaluate predominantly the migratory ability of cells. […] FIG. 17.

[3] = tested on: invasive DDLPS cell line Lipo246; test: Invasion of DDLPS cells; format: cell-based; conditions: 48 h, read-out: decrease in invasion ability
Source text: FIG. 18. Evaluation of the effect of IWS1 inhibitors identified from in silico screening on the […] of cancer cells. Invasiveness is important parameter used to characterize the aggressive behavior of cancer cells.
Invasiveness is important parameter used to characterize the aggressive behavior of cancer cells.

[4] = tested on: shIWS1 (IWS1 knockdown) dedifferentiated liposarcoma cells (cell lines Lipo863 and Lipo815); test: Migration assay, IWS1 knockdown (shIWS1) cells; format: cell-based, human; conditions: 24 hours of treatment, vs non-treatment control
Experimental: as §1, §2

[5] = read-out: IC50 (cell cytotoxicity assay)
[6] = read-out: IC50 (the concentration at which the drug kills 50% of cancer cells)

Row | Compound | IC50 [1, 5] | IC50 [1, 6] | decrease in amount of IWS1/Spt6 complex pulled down (IWS1/Spt6 complex) | increase of ratio between nuclear and cytosolic fractions of IWS1 (IWS1) | decrease in migration ability (dose-dependent) [2] | inhibition at 4 µM [3] | reduction in migration, shIWS1 cells [4]
1 | CN1CCC(=C2c3ccccc3C=Cc3ccccc32)CC1 [Cyproheptadine] | 33 µM | 33 µM |  |  |  |  | 
2 | Clc1ccc2c(c1)CCc1cccnc1C2=C1CCNCC1 [Desloratadine] | 14 µM | 14 µM | more than 50% | 3.3 | 34-53% | 25% | no significant reduction
